PubChem BioAssay AID2685 (National Center for Advancing Translational Sciences (NCATS), 2010)
Screen size: about 320,000 compounds; about 2,100 (0.66%) were called active. Inconclusive means that the source gave no clear call. Such entries were picked first, then a sample of the others. The call rests on the fitted dose curve; in most records, active means well fitted inhibition curve with a large enough effect in the signal ratio, with a control signal flat (not every such curve was filed as active); inconclusive means small, poorly fitted or top-dose-only effect, or effect the other way, or a change in a side signal; inactive means flat fitted curve, though single readings scatter; the % refers to the signal ratio. Potencies of inconclusive entries are doubtful fits and often do not repeat.

test: qHTS Assay for Lipid Storage Modulators in Drosophila S3 Cells; conditions: BODIPY lipid droplet fluorescence, 18-24 h, cells fed with added oleic acid; lipid storage change, negative = inhibition: at 46.1 µM (top of the series) unless noted
How it was run: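 Drosophila S3 cells got compounds at several concentrations plus oleic acid (400 uM solution). Laser-scanning cytometry with 488 nm excitation read lipid droplets at 500-530 nm and cells at 575-640 nm. Percent activity was relative to 20 uM Triacsin C.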
On the % scale 0 is the no-effect control and ±100 the full control effect; potency means the concentration at half of the fitted maximal effect.

Compound	lipid storage change, negative = inhibition	Potency
Cc1nc(-c2ccc(S(=O)(=O)Nc3ccc(Br)cc3F)cc2)co1	inconclusive: 35.8%	
COc1cccc(-c2cc(C(=O)Nc3c(C)nn(Cc4ccccc4)c3C)no2)c1	inconclusive: 41.2%	
COc1ccc(C(=O)O)cc1S(=O)(=O)Nc1cccc(C(F)(F)F)c1		active: 29.1 µM
CCn1c2ccccc2c2cc(C3C(C#N)=C(N)OC4=C3C(=O)CC(C)(C)C4)ccc21 (stereo not given)	inconclusive: 16.5%	
O=C(Nc1nccs1)c1ccccc1Br	inactive	
O=C(CCC(=O)N1CCN(S(=O)(=O)c2ccc(Cl)cc2)CC1)Nc1cccc(Br)c1	inconclusive: 17.3%	
Cc1nn(-c2cccc(C(=O)O)c2)c(C)c1Oc1ccccc1O	inconclusive: -2.04%	
CCN1C(=O)/C(=C\C=C2/C=CC=CN2CC)SC1=S	inconclusive: 10.1%	
COCCOC(=O)c1c(C)oc2ccc(NS(=O)(=O)c3cccs3)cc12	inconclusive: 22.9%	
CC(=O)c1c(NCc2ccccc2)nc(=O)n(-c2ccccc2)c1C	inconclusive: 11.2%	
CCCc1nn(C)c(C(=O)Nc2ccc(Cl)cc2)c1Cl		inconclusive: 6.51 µM [activator, single point]
CC(C)NC(=S)N/N=C/c1ccc2c(c1)OCCO2		inconclusive: 0.0731 µM [activator, partial curve]
CCCCn1c(N)c(N(CCOC)C(=O)c2ccc(-c3cccc(C(F)(F)F)c3)o2)c(=O)[nH]c1=O	inconclusive	
CCCN(CCC)CC(O)COc1ccc([N+](=O)[O-])cc1 (stereo not given)	inconclusive: 5.88%	
COCc1nnc(NS(=O)(=O)c2c(C)cc(C)cc2C)s1		active: 18.4 µM
O=C(CN1C(=O)NC2(CCCc3ccccc32)C1=O)NC1CCCCC1 (stereo not given)	inconclusive: 6.32%	
Cc1nc(SCc2ccccc2)c2oc3ccccc3c2n1		inconclusive: 29.1 µM [activator, single point]
Cc1cccc(NC(=S)N2CCN(c3ccccc3)CC2)c1		inconclusive: 29.1 µM [activator, single point]
Cc1ccc(NC(=O)COc2ccc(Br)cc2CO)cc1	inconclusive: -50.6%	
O=C(O)CC/C(=N/NC(=O)CNC(=O)Cc1ccccc1)c1ccccc1	inconclusive: 12.2%	

Given in CSV form: eight of the compounds above
Compound,"lipid storage change, negative = inhibition",Potency
O=C(Nc1nccs1)c1ccccc1Br,inactive,
O=C(CCC(=O)N1CCN(S(=O)(=O)c2ccc(Cl)cc2)CC1)Nc1cccc(Br)c1,inconclusive: 17.3%,
Cc1nn(-c2cccc(C(=O)O)c2)c(C)c1Oc1ccccc1O,inconclusive: -2.04%,
CCN1C(=O)/C(=C\C=C2/C=CC=CN2CC)SC1=S,inconclusive: 10.1%,
COCCOC(=O)c1c(C)oc2ccc(NS(=O)(=O)c3cccs3)cc12,inconclusive: 22.9%,
CC(=O)c1c(NCc2ccccc2)nc(=O)n(-c2ccccc2)c1C,inconclusive: 11.2%,
CCCc1nn(C)c(C(=O)Nc2ccc(Cl)cc2)c1Cl,,"inconclusive: 6.51 µM [activator, single point]"
CC(C)NC(=S)N/N=C/c1ccc2c(c1)OCCO2,,"inconclusive: 0.0731 µM [activator, partial curve]"

Next entries

Compound	lipid storage change, negative = inhibition	Potency
COC(=O)c1ccccc1NC1c2ccccc2C(=O)N1c1cccnc1 (stereo not given)	inconclusive: 42.8%	
COc1cccc2[nH]c(C(=O)NN)c(N)c12	inconclusive: -19%	
Cc1ccc(-c2nnn(CC(=O)N(c3ccccc3F)C(C(=O)NC3CCCC3)c3ccncc3)n2)o1 (stereo not given)		inconclusive: 0.13 µM [falling, full curve, poor fit]
COc1ccc(Cl)cc1C(=O)NC1=NCCS1	inconclusive: 5.95%	
O=C(c1ccco1)N1CCC(c2nc3c(nnn3Cc3ccccc3Cl)c(=O)[nH]2)CC1	inconclusive: -100%	
Cc1ccc(C)c(OCC(=O)NNC(=O)c2ccc(=O)[nH]c2)c1		inconclusive: 0.517 µM [cytotoxic, full curve, poor fit]
COc1c(O)ccc2c1CN1CCc3cc4c(cc3C1C2)OCO4 (stereo not given)	inconclusive: -6.57%	
Nc1cccc(NC(=O)c2cccs2)c1	inconclusive: 17.8%	
CN(C(=O)COC(=O)c1ccc(CN2CCCC2=O)cc1)c1ccccc1	inconclusive: 27.4%	
COc1ccc(C(=O)N2CCCCC2)cc1S(=O)(=O)Nc1ccccc1	inconclusive: -35.1%	
CN(C)/C=C/C(=O)c1cnc(-c2ccc(Cl)cc2)s1	inconclusive: 4.94%	
COc1ccccc1Nc1ncc(C(=O)N2CCN(Cc3ccc(OC)c(OC)c3OC)CC2)c2ccccc12	inconclusive: -12.4%	
Cc1n[nH]c(=O)c2c(NC(=O)CSc3nc4ccccc4c(=O)n3CCCO)oc(C)c12	inconclusive: -13.4%	
Cc1ccc(-c2ccc(=O)n(CCC(=O)NCc3ccccn3)n2)cc1	inconclusive: 48.1%	
Cc1nc(SCC(=O)Nc2nc3ccccc3s2)n[nH]1	inconclusive: -100%	
Cc1cc(C(C)(C)C)ccc1OCCCCN1CCCC1	inconclusive: -20.6%	
Cc1cc(F)ccc1NS(=O)(=O)c1c(C(=O)N2CCOCC2)c(C)n(C)c1C	inconclusive: 5.09%	
COc1ccc(C2=NS(=O)(=O)N(C)C(C(=O)N3CCCCC3C)=C2)cc1 (stereo not given)		inconclusive: 0.206 µM [falling, full curve, poor fit]
COc1ccc(F)cc1COc1nc(C)nc2ccccc12	inconclusive: 49.6%	
Fc1ccccc1NC(=S)NC1CCCC1		inconclusive: 29.1 µM [falling, single point]
